Paper PMC5699845
Results are given in words; binding and its absence hold for the method and conditions named. In cells and extracts the contact can be indirect. Some binding calls cover weakened binding; strength is not graded here. For some of these results: Where a sequence is shown, tags or fusion partners need not be part of it.

Legend:
[1] = target: T1, Flag-tagged TRAF2 (human) (UniProt Q12933); assay: co-IP; 293T cells transfected 24 h with Flag-tagged TRAFs or their truncations and HA-tagged TBK1, HA-tagged IKKε or HA-tagged MAVS; IP anti-Flag, Western blot
T1 sequence: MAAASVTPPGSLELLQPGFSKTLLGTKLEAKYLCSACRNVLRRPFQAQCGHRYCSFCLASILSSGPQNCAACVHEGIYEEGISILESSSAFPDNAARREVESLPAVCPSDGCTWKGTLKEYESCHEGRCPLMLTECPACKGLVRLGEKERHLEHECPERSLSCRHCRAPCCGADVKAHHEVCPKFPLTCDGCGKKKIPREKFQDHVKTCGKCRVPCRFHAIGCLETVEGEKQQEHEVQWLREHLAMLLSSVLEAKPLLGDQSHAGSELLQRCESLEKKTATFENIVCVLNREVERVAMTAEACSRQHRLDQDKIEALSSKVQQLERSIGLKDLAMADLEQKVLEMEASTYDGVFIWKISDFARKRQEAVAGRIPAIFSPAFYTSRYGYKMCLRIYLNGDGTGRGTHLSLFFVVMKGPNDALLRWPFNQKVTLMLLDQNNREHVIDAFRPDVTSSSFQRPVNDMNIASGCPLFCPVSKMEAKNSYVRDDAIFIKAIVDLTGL

[2] = target: T2, Flag-tagged TRAF6-dR (lacking amino acids 70–109) (human) (UniProt Q9Y4K3); assay: as above
T2 sequence: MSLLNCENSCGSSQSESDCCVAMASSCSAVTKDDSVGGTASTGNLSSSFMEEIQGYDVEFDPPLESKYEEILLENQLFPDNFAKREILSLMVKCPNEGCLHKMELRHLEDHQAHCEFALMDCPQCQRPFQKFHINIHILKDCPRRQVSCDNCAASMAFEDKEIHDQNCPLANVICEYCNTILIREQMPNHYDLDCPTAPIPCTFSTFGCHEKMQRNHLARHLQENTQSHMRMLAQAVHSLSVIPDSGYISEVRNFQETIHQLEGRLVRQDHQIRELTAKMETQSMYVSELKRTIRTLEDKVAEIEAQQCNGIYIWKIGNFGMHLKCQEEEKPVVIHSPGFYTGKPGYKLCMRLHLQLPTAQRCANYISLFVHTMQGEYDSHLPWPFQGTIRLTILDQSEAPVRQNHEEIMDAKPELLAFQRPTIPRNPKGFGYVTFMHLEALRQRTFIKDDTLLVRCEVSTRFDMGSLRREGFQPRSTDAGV

[3] = target: T3, Flag-tagged TRAF2-dR (lacking amino acids 34–73) (human) (UniProt Q12933); assay: as above
T3 sequence: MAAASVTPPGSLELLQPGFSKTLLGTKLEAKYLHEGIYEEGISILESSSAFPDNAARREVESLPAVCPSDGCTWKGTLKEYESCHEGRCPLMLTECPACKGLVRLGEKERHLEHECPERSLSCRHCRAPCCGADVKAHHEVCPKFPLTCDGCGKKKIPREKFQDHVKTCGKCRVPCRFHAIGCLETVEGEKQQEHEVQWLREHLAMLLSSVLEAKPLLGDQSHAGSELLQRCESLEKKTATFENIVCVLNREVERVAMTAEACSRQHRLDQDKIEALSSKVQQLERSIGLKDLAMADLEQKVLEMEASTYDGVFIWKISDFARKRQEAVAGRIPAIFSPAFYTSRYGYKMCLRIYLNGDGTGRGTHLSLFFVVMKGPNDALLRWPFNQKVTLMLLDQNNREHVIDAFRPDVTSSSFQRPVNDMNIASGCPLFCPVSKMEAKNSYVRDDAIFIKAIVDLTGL

[4] = target: T4, Flag-tagged TRAF6-d1 (lacking amino acids 1–259) (human) (UniProt Q9Y4K3); assay: as above
T4 sequence: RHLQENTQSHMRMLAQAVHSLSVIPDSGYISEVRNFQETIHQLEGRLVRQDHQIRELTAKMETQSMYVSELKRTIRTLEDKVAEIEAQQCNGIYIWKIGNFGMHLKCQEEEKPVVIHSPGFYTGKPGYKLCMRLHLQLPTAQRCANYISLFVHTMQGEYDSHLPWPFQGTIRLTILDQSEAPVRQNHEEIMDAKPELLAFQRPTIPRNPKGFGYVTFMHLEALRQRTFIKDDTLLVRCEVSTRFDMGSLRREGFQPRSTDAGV

[5] = target: T5, Flag-tagged TRAF3-dR (lacking amino acids 68–77) (human) (UniProt Q13114); assay: as above
T5 sequence: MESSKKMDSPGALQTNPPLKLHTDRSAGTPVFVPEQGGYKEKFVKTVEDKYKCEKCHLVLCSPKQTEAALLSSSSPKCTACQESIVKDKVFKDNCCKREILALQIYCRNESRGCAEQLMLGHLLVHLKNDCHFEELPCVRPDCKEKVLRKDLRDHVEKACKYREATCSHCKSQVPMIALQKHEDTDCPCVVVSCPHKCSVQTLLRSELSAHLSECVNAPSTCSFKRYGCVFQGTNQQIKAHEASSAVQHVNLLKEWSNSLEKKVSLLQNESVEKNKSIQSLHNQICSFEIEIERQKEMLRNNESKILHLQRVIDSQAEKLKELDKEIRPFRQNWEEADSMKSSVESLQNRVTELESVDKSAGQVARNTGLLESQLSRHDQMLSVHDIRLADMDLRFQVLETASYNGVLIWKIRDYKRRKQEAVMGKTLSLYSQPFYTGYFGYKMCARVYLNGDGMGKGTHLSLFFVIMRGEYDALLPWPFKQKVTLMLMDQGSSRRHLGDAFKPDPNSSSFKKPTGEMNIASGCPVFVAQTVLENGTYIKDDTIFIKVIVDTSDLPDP

[6] = target: T6, Flag-tagged TRAF3-d1 (lacking amino acids 1–249) (human) (UniProt Q13114); assay: as above
T6 sequence: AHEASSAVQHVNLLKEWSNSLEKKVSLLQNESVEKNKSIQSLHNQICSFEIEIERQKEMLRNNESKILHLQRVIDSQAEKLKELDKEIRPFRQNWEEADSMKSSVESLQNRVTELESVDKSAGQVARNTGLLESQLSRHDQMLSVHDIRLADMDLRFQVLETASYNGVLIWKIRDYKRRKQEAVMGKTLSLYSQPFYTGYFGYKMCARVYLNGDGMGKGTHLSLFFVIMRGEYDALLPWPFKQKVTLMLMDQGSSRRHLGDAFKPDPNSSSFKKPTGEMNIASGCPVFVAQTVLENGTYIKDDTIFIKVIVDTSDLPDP

[7] = target: T7, Flag-tagged TRAF2-d1 (lacking amino acids 1–233) (human) (UniProt Q12933); assay: as above
T7 sequence: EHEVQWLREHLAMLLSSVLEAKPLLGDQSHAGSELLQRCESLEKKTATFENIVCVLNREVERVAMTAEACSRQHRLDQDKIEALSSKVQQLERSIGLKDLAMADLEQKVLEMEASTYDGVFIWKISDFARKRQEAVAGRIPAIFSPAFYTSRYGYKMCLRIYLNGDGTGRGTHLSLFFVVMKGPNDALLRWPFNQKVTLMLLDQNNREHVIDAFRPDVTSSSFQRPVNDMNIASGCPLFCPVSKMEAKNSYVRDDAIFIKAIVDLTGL

[8] = target: T8, TRAF2, endogenous (human (endogenous in 293T, HeLa, THP1)) (UniProt Q12933); assay: co-IP; endogenous proteins; lysates of non-stimulated 293T, HeLa and THP1 cells immunoprecipitated with anti-TRAF2, 3 or 6 antibodies, Western blot
T8 sequence: T1 sequence

[9] = target: T1, Flag-tagged TRAF2 (human); assay: co-IP; TRAFs-deficient 293T cells reconstituted with TRAF2, 3, 5 or 6, SeV-infected for the indicated times; lysates immunoprecipitated with anti-Flag antibody, Western blot

Measured: binding

B1: HA-tagged IKKε (protein, UniProt Q14164 1-716)
chain: MQSTANYLWHTDDLLGQGATASVYKARNKKSGELVAVKVFNTTSYLRPREVQVREFEVLRKLNHQNIVKLFAVEETGGSRQKVLVMEYCSSGSLLSVLESPENAFGLPEDEFLVVLRCVVAGMNHLRENGIVHRDIKPGNIMRLVGEEGQSIYKLTDFGAARELDDDEKFVSVYGTEEYLHPDMYERAVLRKPQQKAFGVTVDLWSIGVTLYHAATGSLPFIPFGGPRRNKEIMYRITTEKPAGAIAGAQRRENGPLEWSYTLPITCQLSLGLQSQLVPILANILEVEQAKCWGFDQFFAETSDILQRVVVHVFSLSQAVLHHIYIHAHNTIAIFQEAVHKQTSVAPRHQEYLFEGHLCVLEPSVSAQHIAHTTASSPLTLFSTAIPKGLAFRDPALDVPKFVPKVDLQADYNTAKGVLGAGYQALRLARALLDGQELMFRGLHWVMEVLQATCRRTLEVARTSLLYLSSSLGTERFSSVAGTPEIQELKAAAELRSRLRTLAEVLSRCSQNITETQESLSSLNRELVKSRDQVHEDRSIQQIQCCLDKMNFIYKQFKKSRMRPGLGYNEEQIHKLDKVNFSHLAKRLLQVFQEECVQKYQASLVTHGKRMRVVHETRNHLRLVGCSVAACNTEAQGVQESLSKLLEELSHQLLQDRAKGAQASPPPIAPYPSPTRKDLLLHMQELCEGMKLLASDLLDNNRIIERLNRVPAPPDV
not listed: [8] | [9]
binds: all other assays above

B2: TBK1, endogenous (protein, UniProt Q9UHD2 1-729)
chain: MQSTSNHLWLLSDILGQGATANVFRGRHKKTGDLFAIKVFNNISFLRPVDVQMREFEVLKKLNHKNIVKLFAIEEETTTRHKVLIMEFCPCGSLYTVLEEPSNAYGLPESEFLIVLRDVVGGMNHLRENGIVHRDIKPGNIMRVIGEDGQSVYKLTDFGAARELEDDEQFVSLYGTEEYLHPDMYERAVLRKDHQKKYGATVDLWSIGVTFYHAATGSLPFRPFEGPRRNKEVMYKIITGKPSGAISGVQKAENGPIDWSGDMPVSCSLSRGLQVLLTPVLANILEADQEKCWGFDQFFAETSDILHRMVIHVFSLQQMTAHKIYIHSYNTATIFHELVYKQTKIISSNQELIYEGRRLVLEPGRLAQHFPKTTEENPIFVVSREPLNTIGLIYEKISLPKVHPRYDLDGDASMAKAITGVVCYACRIASTLLLYQELMRKGIRWLIELIKDDYNETVHKKTEVVITLDFCIRNIEKTVKVYEKLMKINLEAAELGEISDIHTKLLRLSSSQGTIETSLQDIDSRLSPGGSLADAWAHQEGTHPKDRNVEKLQVLLNCMTEIYYQFKKDKAERRLAYNEEQIHKFDKQKLYYHATKAMTHFTDECVKKYEAFLNKSEEWIRKMLHLRKQLLSLTNQCFDIEEEVSKYQEYTNELQETLPQKMFTASSGIKHTMTPIYPSSNTLVEMTLGMKKLKEEMEGVVKELAENNHILERFGSLTMDGGLRNVDCL
binds: [8] | [9]

B3: HA-tagged TBK1 (protein, UniProt Q9UHD2 1-729)
chain: B2 chain
not listed: [8] | [9]
binds: all other assays above
